# Out of some 320,000 compounds screened, about 22,000 (6.9%) were called active. The shares of active, inactive and inconclusive entries below differ from those in the screen. The call rests on the fitted dose curve; in most records, active means well fitted inhibition curve with a large enough effect; inconclusive means small, poorly fitted or top-dose-only effect, or another doubt; inactive means no such curve, though single readings can be large or run the other way. Potencies of inconclusive entries are doubtful fits and often do not repeat.
# Experiment: Primary qHTS for delayed death inhibitors of the malarial parasite plastid, 96 hour incubation
# Conditions: P. falciparum luciferase reporter growth; series mostly up to 28.7 µM; activity change, negative = inhibition: at the top concentration
# Procedure, shortened: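 Delayed-death screen, second-generation endpoint: infected erythrocytes, 2% hematocrit, 0.05% parasitemia final; 96 hours at 37 C, 5% CO2; luciferase detection reagent; luminescence decrease equals reduced growth.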
# On the % scale 0 is the no-effect control and ±100 the full control effect; potency means the concentration at half of the fitted maximal effect.
SMILES,"activity change, negative = inhibition",Potency
COc1ccc(CCNC(=O)CSc2ccc3nnc(CCNC(=O)c4ccccc4)n3n2)cc1OC,inactive: -15.7%,
O=C(Nc1cccc(Cl)c1)N(Cc1nc2ccccc2c(=O)[nH]1)Cc1cccs1,,"inconclusive: 16.5 µM [inhibitor, single point]"
CC(C)OCCCN1CN(S(=O)(=O)c2ccccc2)c2nc3ccccc3nc21,inactive: 3.36% [at 5.75 µM],
CN(C)CCNC(=O)CN1C(=O)CSc2ccc(S(=O)(=O)N3CCCCC3)cc21,,"inconclusive: 18.5 µM [inhibitor, single point]"
O=CN(c1ccccc1)c1ccc2ccccc2c1,inactive: 103%,
Cc1cccc(-c2nc(NCCCN(C)C)c3ccccc3n2)c1,inactive: -13.5%,
COc1ccc(CC(=O)N/N=C\c2cc(Br)c(O)c(Br)c2)cc1,,"inconclusive: 18.5 µM [inhibitor, single point]"
CSc1nc(Oc2ccc(F)cc2)c2ccccc2n1,,"inconclusive: 4.15 µM [inhibitor, single point]"
CCCn1c(SCC(=O)N2c3ccccc3Sc3ccccc32)nc2ccccc21,,active: 3.7 µM
Cc1c(C(=O)O)sc2nc3n(c(=O)c12)CCCCC3,inactive: -12.8%,
COc1ccc(NC(=O)CSc2nc(C3CC3)nc3ccccc23)c(OC)c1,inactive: 33%,
C=CCn1cc(/C=C2\SC(N3CCOCC3)=NC2=O)c2ccccc21,,"inconclusive: 11.7 µM [inhibitor, partial curve, poor fit]"
CC1CN(C(=O)c2cc3ccccc3cc2O)CC(C)O1 (stereo unspecified),,"inconclusive: 18.5 µM [inhibitor, single point]"
O=C(/C=C/c1ccc(Br)o1)NC(c1ccccc1)c1ccccc1,,"inconclusive: 16.5 µM [inhibitor, single point]"
Cc1ccccc1C(=O)N1CCC(C(=O)Nc2ccccc2Cl)CC1,,"inconclusive: 16.5 µM [inhibitor, single point]"
COc1ccc(CN2CCC(Cc3ccccc3)CC2)c(C)c1C,,"inconclusive: 18.5 µM [inhibitor, single point]"
CCn1cc(S(=O)(=O)c2cccc(C)c2)c(=O)c2cc(F)c(N3CCN(C)CC3)cc21,,"inconclusive: 10.4 µM [inhibitor, single point]"
CC(C)Oc1ccc(CNC(=S)Nc2ccccc2)cc1Cl,,"inconclusive: 18.5 µM [inhibitor, single point]"
CC(C)C(=O)Nc1nnc(-c2ccco2)s1,inactive: 29.8%,
COCCNC(=S)Nc1ccc2nc(N3CCOCC3)cc(C)c2c1,inactive: 24.6%,
COc1cc(OC)c2ccc(=O)oc2c1C(CC(=O)N1CCOCC1)c1ccc2c(c1)OCO2 (stereo unspecified),,"inconclusive: 5.22 µM [inhibitor, single point]"
Cc1nc2ccccn2c1CN(C)C(=O)C1CCC(=O)N(Cc2cccc(F)c2)C1 (stereo unspecified),,"inconclusive: 18.5 µM [inhibitor, single point]"
Cc1cccc2sc(NC(=O)Cn3cccc3)nc12,inactive: -6.67%,

SMILES,"activity change, negative = inhibition",Potency
O=C(NN1CCN(Cc2ccccc2Cl)CC1)c1ccc(Cl)cc1,inactive: -12.8%,
CCCCN(CC)C(=O)Cc1cn(C)c2ccccc12,,"inconclusive: 10.4 µM [inhibitor, partial curve]"
Cc1cc(Br)ccc1NC(=O)CN1CCN(c2ccccn2)CC1,inactive: -16.6%,
O=C(Nc1ccccc1F)C1CCN(S(=O)(=O)c2cccc3nonc23)CC1,inactive: 0.386%,
CCOC(=O)c1[nH]c(C)c(C(=O)N2CCN(c3ccccc3)CC2)c1C,inactive: 8.28%,
CCCCOC(=O)c1ccc(NC(=O)CSc2nncn2C)cc1,inactive: -13.9%,
C#CCOCCOCCOCCNc1nc(N2CCN(C(=O)CCCCCCCCCCNC(=O)[C@H](CCCCN)n3cc(C)nn3)CC2)nc(N2CCN(C(=O)CCCCCCCCCCNC(=O)[C@H](CCCN=C(N)N)n3cc(C[C@@H](C)CC)nn3)CC2)n1,,active: 1.47 µM
CSc1cccc(NC(=S)N(CCN(C)C)C(C)c2ccccn2)c1 (stereo unspecified),,"inconclusive: 11.7 µM [inhibitor, single point]"
Cc1ccc(NC(=O)CSc2nnc3ccc(-c4cccnc4)nn23)cc1,,"inconclusive: 20.8 µM [inhibitor, partial curve, poor fit]"
COc1ccc(N2CCN(CCCNC(=O)CN3C(=O)COc4ccccc43)CC2)cc1,inactive: 71.7%,
COc1ccc(C2(CNC(=O)Cc3ccccc3)CCCC2)cc1OC,,"inconclusive: 4.15 µM [inhibitor, single point]"
CC(C)=CCN1CCN(Cc2cnc(C)s2)CC1CCO (stereo unspecified),,"inconclusive: 11.7 µM [inhibitor, single point]"
COCCn1c(Cc2cccn2C)nnc1SCC(=O)Nc1nccs1,,"inconclusive: 0.0657 µM [inhibitor, full curve, poor fit]"
Cc1ccc(C(=O)COC(=O)CCC(=O)Nc2ccccc2Cl)cc1[N+](=O)[O-],,"inconclusive: 11.7 µM [inhibitor, single point]"
Cc1cc(C)n(CCC(=O)N/N=C/c2ccc(O)cc2O)n1,,"inconclusive: 10.4 µM [inhibitor, single point]"
Cc1[nH]c(=O)[nH]c(=O)c1CSc1nnc(CCCCCNC(=O)OC(C)(C)C)o1,,"inconclusive: 16.5 µM [inhibitor, partial curve, poor fit]"
C=CCOC(=O)Nc1c(C(=O)OC)[nH]c2ccc(Cl)cc12,inactive: -15.7% [at 5.75 µM],
CCCCCOc1ccc(C(=O)C(c2ccccc2)N2CCOCC2)cc1 (stereo unspecified),,"inconclusive: 1.17 µM [inhibitor, partial curve, poor fit]"
CCCCc1ccc(NC(=O)CSc2nc(=O)n(CCCN3CCOCC3)c3c2CCC3)cc1,,"inconclusive: 18.5 µM [inhibitor, single point]"
O=C(CCCNC(=O)c1ccc(Cl)cc1)Nc1ncccc1O,,active: 8.28 µM
O=C(/C=C/c1ccco1)Nc1cccc(S(=O)(=O)N2CCOCC2)c1,,"inconclusive: 5.86 µM [inhibitor, single point]"
Cc1cc(C(=O)CCl)c(C)n1CCc1ccc(F)cc1,,"inconclusive: 10.4 µM [inhibitor, single point]"
Cc1ccc(OC(C)C(=O)N2CC(=O)Nc3ccccc32)c(C)c1 (stereo unspecified),,"inconclusive: 1.65 µM [inhibitor, partial curve]"

# Reference: PubChem BioAssay AID504834 (National Center for Advancing Translational Sciences (NCATS), 2011)
